Laboratory results published in PubChem BioAssay AID1347426 (Functional Genomics Laboratory (NCATS/FGL), 2020).
Hit rate of the full screen: of about 31,000 sequences, about 1,400 (4.5%) were called active.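 The calls were made as follows: active = median seed-adjusted z-score above 1 or below -1; inactive = the rest.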 Some of the results follow.

Experiment: Novel Modifiers of Survival Motor Neuron (SMN) Protein: Gene Identification via Genome-wide siRNA Screen;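 also: luminescence tracks full-length SMN protein made from the SMN2 reporter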
Conditions: HEK293T SMN2-luciferase reporter, siRNA knockdown, 72 h; actives lie on both sides
In short: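 HEK293T cells stably expressing an SMN2 splicing/cDNA-luciferase reporter were reverse-transfected with a druggable-genome siRNA library and read by luminescence at 72 hours; hits defined by MAD score above 1.0 or below -1.0.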
For CCUUACUCUCCAUCAAAUATT against ZNF383, the median seed-adjusted z-score was inactive: -0.196. For GCAACACUGUGGUCAUGGUTT against ALDH16A1, the median seed-adjusted z-score was inactive: 0.42. With CACUUCGGAUUUUACCGUATT against CDADC1 the median seed-adjusted z-score was inactive: 0.544. In the case of CCAGUAGCCCAGACUAAGATT against PTPRK, the median seed-adjusted z-score is reported as inactive: 0. In the case of GUGUCUGGAUUUUCACUGATT against F11, the median seed-adjusted z-score is reported as inactive: -0.0319. With GCGAGUAUCUGAUCCAGCATT against ABCB9 the median seed-adjusted z-score was inactive: 0.151. For GGUUGUAAUUCUACUCUAATT against ZNF572, the median seed-adjusted z-score was inactive: 0.237. In the case of GGACCUAUACUUACGAAAATT against CTNNB1, the median seed-adjusted z-score is reported as inactive: 0.0802. For GGUGGGCGUGAGUUUCUUATT against B3GNT6, the median seed-adjusted z-score was inactive: 0.00618. In the case of GGCUCUUACAGGUGAAUCATT against GRIP1, the median seed-adjusted z-score is reported as inactive: 0.337. For GGCCUAUACUAAUUGCUUUTT against ZNF705A, the median seed-adjusted z-score was inactive: 0.669. In the case of CAGCUACAUUUGCACAACATT against BCL11B, the median seed-adjusted z-score is reported as inactive: 0.163. With GAGUGUUCAUUUUUCGUUUTT against POU3F1 the median seed-adjusted z-score was inactive: 0.279. In the case of GGCUAGGGAUACUCACUCATT against NAGK, the median seed-adjusted z-score is reported as inactive: 0.446. With CACCGUGUUUGACAACUAUTT against RAC2 the median seed-adjusted z-score was inactive: -0.596. With UGUUAUAAGUCGAACUGAATT against RBBP6 the median seed-adjusted z-score was inactive: -0.212. In the case of GUUCUCCCGUGAGAAGAAATT against ADRA1D, the median seed-adjusted z-score is reported as inactive: -0.18. With GGAGGUUCUUCUGAGUACATT against SMC1A the median seed-adjusted z-score was inactive: -0.362. With CCAUGGAUUUAUUACGAGUTT against WDR64 the median seed-adjusted z-score was inactive: -0.25. For GGAUAUGAACCACACGGAATT against GPR143, the median seed-adjusted z-score was inactive: 0.366. In the case of CCGAAAGUCUGCAUCCAAATT against ACTR8, the median seed-adjusted z-score is reported as inactive: -0.366. In the case of CAGCAUGACCGGUCAGAUATT against CDADC1, the median seed-adjusted z-score is reported as inactive: 0.544. For GCAAUGUAGAAGGCCUAUATT against ROM1, the median seed-adjusted z-score was inactive: 0.41. For CAAUCCAAGUAGAAUGAAUTT against ECHDC1, the median seed-adjusted z-score was inactive: 0.554. For GAUGGAUACGAAUUCAAGUTT against LGALS1, the median seed-adjusted z-score was inactive: 0.033. For GGCUCACGGCUGCAUUUGATT against BPHL, the median seed-adjusted z-score was inactive: -0.161. In the case of CUUCACUACUGGUAAUUAATT against PRMT6, the median seed-adjusted z-score is reported as inactive: -0.412. With GCAGUUGAAUUACUAGGAATT against NAPG the median seed-adjusted z-score was inactive: 0.0128. With GCAGCUGUUUGGAACCAAATT against TRIM47 the median seed-adjusted z-score was inactive: 0.707. For GCAAGGCAAUGACAAUGGUTT against 1-Mar, the median seed-adjusted z-score was inactive: 0. For GGAAAGUAGCAGACCUAGATT against TOPORS, the median seed-adjusted z-score was inactive: 0.381. In the case of GGAAAAGCGAAUAAAGGAATT against MYB, the median seed-adjusted z-score is reported as inactive: 0.307. In the case of CAGACACCAUACUCCAUUATT against MYO7B, the median seed-adjusted z-score is reported as inactive: -0.167. For AGGGCAACAUCAUCGCAUUTT against NEURL, the median seed-adjusted z-score was inactive: -0.268. With GGAAGCCCAUGACCACUAATT against GTF2F1 the median seed-adjusted z-score was inactive: -0.556. With CCAUAACACCGGAUCAAGUTT against FIGNL1 the median seed-adjusted z-score was inactive: -0.408. In the case of GAAACUCUCUUCAAGUCUATT against CKB, the median seed-adjusted z-score is reported as inactive: -0.236. For GACCAUCUAUUUAAGCUGATT against AARSD1, the median seed-adjusted z-score was inactive: -0.156. With GCGCAACAGCGAACUAGAATT against MID2 the median seed-adjusted z-score was inactive: -0.0363. In the case of GGAUUUCACCGUCGUCUUUTT against PGA5, the median seed-adjusted z-score is reported as inactive: -0.149. In the case of GGAAUGCAAUUCUCAGAGATT against LCN2, the median seed-adjusted z-score is reported as inactive: 0.123. For CACCGUUCAUCUGCACAGATT against KATNA1, the median seed-adjusted z-score was inactive: -0.471. With CGUGUGAACCAUCCUAAUATT against MAP3K7 the median seed-adjusted z-score was inactive: -0.23. In the case of GCAUCGUCACUGUCAUGAATT against ITPR3, the median seed-adjusted z-score is reported as active: -1.28. For GCUCCAAAAGAGAUAAACATT against RGS2, the median seed-adjusted z-score was inactive: 0.00236. With AAAGACCAGUGAACACUCATT against GPR42 the median seed-adjusted z-score was inactive: -0.0972. With GGAGAGGUUCAAAUGCAUUTT against RAB34 the median seed-adjusted z-score was inactive: 0.342. For CUAUAUCCAGAGACCUCUATT against CA10, the median seed-adjusted z-score was inactive: 0.255. For ACCUUUAACUGGUCCACAATT against ZNF138, the median seed-adjusted z-score was inactive: -0.0937. For AGCCCUUGACCUUAUCUAATT against CSTB, the median seed-adjusted z-score was active: 1.08. With CUAAAGAUCAUGAAAGUGATT against MLX the median seed-adjusted z-score was inactive: 0.126. In the case of GGACCAAGACAAGAUUGAATT against TRAF2, the median seed-adjusted z-score is reported as inactive: -0.00463. In the case of GCCUUGUAAAAAUCAACUUTT against ZNF528, the median seed-adjusted z-score is reported as inactive: -0.0746. In the case of GCACGCUGGUUUCUGCUUGTT against TNFRSF6B, the median seed-adjusted z-score is reported as inactive: 0.0458. With GCUUUAGAGUUCCAUAUGATT against PIK3CG the median seed-adjusted z-score was inactive: 0.576. In the case of CAUGCACGGAGAGCCCAAATT against RPUSD3, the median seed-adjusted z-score is reported as inactive: 0.303. With GCCCUUCGAUGGUUUCGAUTT against NUAK1 the median seed-adjusted z-score was inactive: -0.197. With GGCGAAAUCCGAGAGACCATT against AP2S1 the median seed-adjusted z-score was inactive: 0.146. For GCACCAAGAAUAUCCGCUATT against SLC9A4, the median seed-adjusted z-score was inactive: 0.693. For GCAGUUCCGGAGACUCUUUTT against CAPNS1, the median seed-adjusted z-score was inactive: 0.35. For GGACCAUUUAAAGAUACUATT against CDH10, the median seed-adjusted z-score was inactive: 0. For GGAAGUACAGAUGCCCAUATT against LDLRAD2, the median seed-adjusted z-score was inactive: -0.459. In the case of AGAUACUGGUAUUGCUCGATT against SNRPB, the median seed-adjusted z-score is reported as active: -3.17. In the case of GGAUGAAGAUAGCAUCAGATT against TP63, the median seed-adjusted z-score is reported as inactive: -0.129. For GGACUUUUACACCACCUUUTT against NRXN2, the median seed-adjusted z-score was inactive: -0.485. With GCAUCACCUUCACGGGCAATT against SPON2 the median seed-adjusted z-score was inactive: 0. With GGCGAAGAAAUGUCCAUGATT against POMT1 the median seed-adjusted z-score was inactive: 0.327. For CAUGUUCACUGCUACCGAUTT against LPP, the median seed-adjusted z-score was inactive: -0.103. For AGCUACUAGUGGAGCAGAATT against BAT1, the median seed-adjusted z-score was active: -1.49.
